Drawing on article PMC5613012, this text covers binding for 2 substances.

By UniProt entry, the sequences of proteins in these tests, tags left out.
UniProt P58391: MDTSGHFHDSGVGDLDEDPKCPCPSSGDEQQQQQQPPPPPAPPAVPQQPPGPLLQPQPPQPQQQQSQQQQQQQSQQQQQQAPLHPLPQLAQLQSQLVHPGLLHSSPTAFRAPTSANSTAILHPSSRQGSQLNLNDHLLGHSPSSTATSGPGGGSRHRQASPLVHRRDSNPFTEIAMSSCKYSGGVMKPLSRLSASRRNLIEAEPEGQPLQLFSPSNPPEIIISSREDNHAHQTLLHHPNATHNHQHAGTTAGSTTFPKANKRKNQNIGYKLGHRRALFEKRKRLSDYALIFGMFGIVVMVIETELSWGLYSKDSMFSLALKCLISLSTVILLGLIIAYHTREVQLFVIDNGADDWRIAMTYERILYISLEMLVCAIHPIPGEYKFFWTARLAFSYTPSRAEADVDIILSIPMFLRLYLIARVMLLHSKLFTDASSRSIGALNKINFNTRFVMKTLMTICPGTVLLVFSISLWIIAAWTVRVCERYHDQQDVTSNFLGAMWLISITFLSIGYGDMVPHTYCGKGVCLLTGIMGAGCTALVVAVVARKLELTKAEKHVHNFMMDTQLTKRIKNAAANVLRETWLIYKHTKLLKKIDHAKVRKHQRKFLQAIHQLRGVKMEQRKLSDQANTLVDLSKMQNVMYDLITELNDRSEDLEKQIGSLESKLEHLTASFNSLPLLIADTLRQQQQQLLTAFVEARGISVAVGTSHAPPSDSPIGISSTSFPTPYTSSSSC
UniProt Q9EPK8: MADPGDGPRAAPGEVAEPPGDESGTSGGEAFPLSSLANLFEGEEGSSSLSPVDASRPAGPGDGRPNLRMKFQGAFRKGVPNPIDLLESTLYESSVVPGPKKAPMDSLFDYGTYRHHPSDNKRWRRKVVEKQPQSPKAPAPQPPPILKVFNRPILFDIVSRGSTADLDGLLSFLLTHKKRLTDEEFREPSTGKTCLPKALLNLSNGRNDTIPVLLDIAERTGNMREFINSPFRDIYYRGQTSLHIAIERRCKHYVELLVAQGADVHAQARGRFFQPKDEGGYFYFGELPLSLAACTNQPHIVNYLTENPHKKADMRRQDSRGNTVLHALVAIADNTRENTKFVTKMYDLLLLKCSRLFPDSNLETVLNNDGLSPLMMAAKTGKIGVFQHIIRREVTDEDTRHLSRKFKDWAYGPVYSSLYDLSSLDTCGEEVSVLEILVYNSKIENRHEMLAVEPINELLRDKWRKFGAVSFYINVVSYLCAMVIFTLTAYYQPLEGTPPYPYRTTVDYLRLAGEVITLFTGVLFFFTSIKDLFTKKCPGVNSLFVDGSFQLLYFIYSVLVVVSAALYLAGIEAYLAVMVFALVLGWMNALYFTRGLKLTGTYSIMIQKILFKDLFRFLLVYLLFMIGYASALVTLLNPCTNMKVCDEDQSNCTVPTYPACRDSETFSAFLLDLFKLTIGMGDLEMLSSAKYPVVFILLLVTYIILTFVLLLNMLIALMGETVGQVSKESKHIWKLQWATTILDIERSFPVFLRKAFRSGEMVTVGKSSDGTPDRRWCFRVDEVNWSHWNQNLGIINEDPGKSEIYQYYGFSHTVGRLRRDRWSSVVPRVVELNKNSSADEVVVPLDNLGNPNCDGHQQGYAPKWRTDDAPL

Experiment [1] addresses small conductance Ca2+-activated K+ (SK3) channel (mouse (endogenous in detrusor muscle)) (UniProt P58391). Briefly: proximity ligation; isolated murine detrusor PDGFRα+ cells (eGFP), fixed in 4% paraformaldehyde and permeabilized; goat anti-TRPV4 and rabbit anti-SK3 antibodies, Duolink detection.
The target is the same in experiment [2]. Nature of the experiment: co-IP; 500 µg of murine detrusor membrane fraction (100,000 x g pellet resuspended in lysis buffer with 0.1% SDS), pre-cleared; rabbit TRPV4 or rabbit SK3 antibody crosslinked to protein A/G-Dynabeads, 2 hours at 4 °C; eluates analysed by Wes capillary western; non-immune rabbit IgG as control.
Experiment [3] addresses TRPV4 channel (mouse (endogenous in detrusor muscle)) (UniProt Q9EPK8). The experiment is described as above.

These are yes or no findings as the source states them, for the method shown. In cells and extracts the contact can be indirect. Some results given as binding are weak or reduced against the parent protein; the word gives no strength.

As for “TRPV4 channel (from UniProt Q9EPK8 1-871)”, the binding entry in experiment [1] and in experiment [2] was “binds” throughout. “small conductance Ca2+-activated K+ (SK3) channel (from UniProt P58391 1-732)”: in experiment [3], the binding entry is “binds”.
